Earlier results, collected in article PMC5704914 (Biochemistry, 2017).

Test system: L-type channel
Conditions: ref [71], [72]; cited from earlier work

COC(=O)C1=C(C)NC(C)=C(C(=O)OC)C1c1ccccc1[N+](=O)[O-] [nifedipine]
behavioral effect: antidepressant
